Assay results reported in PubChem BioAssay AID2685 (National Center for Advancing Translational Sciences (NCATS), 2010).
This is one part of the list. Further columns of the screen follow, without active or inactive calls. The list favours compounds with an active or inconclusive main result. Potencies come from curve fits of mixed quality, noted in brackets.

Experiment: qHTS Assay for Lipid Storage Modulators in Drosophila S3 Cells;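 on cell number change: cells counted by Cell Tracker Red CMTPX staining in the red channel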
Conditions: BODIPY lipid droplet fluorescence, 18-24 h; for cell number change: measured here: cell count max response, cells fed with added oleic acid
Summary of the method: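 Drosophila S3 cells got compounds at several concentrations plus oleic acid (400 uM solution). Laser-scanning cytometry with 488 nm excitation read lipid droplets at 500-530 nm and cells at 575-640 nm. Percent activity was relative to 20 uM Triacsin C.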

[1] = measured here: cell number channel AC50, cells fed with added oleic acid
[2] = measured here: lipid fluorescence (Fed channel) AC50, cells fed with added oleic acid

SMILES | cell number change [%] | AC50 [1] | AC50 [2]
COc1ccc2c(C=Nc3c(C)n(C)n(-c4ccccc4)c3=O)c(O)n(Cc3ccco3)c(=O)c2c1 | -18.7 | – | –
C[C@H](NC(=O)c1[nH]cnc1C(=O)Nc1cccc(Cl)c1)c1ccccc1 | -31.1 | 8.2 µM [falling, single point] | 18.4 µM [falling, single point]
Nc1n[nH]c(N)c1N=Nc1ccc(Cl)cc1 | -11.4 | – | 16.4 µM [falling, single point]
CCCNC(=O)Cn1c(=O)/c(=C\c2ccc(-c3ccc([N+](=O)[O-])cc3)o2)s/c1=C\C(=O)C(C)(C)C | -89.7 | 5.17 µM [falling, full curve] | 0.291 µM [falling, full curve]
Cc1cc(NC(=O)COC(=O)c2cc(S(=O)(=O)N3CCOCC3)ccc2N2CCCCC2)no1 | 4.96 | – | 8.2 µM [rising, partial curve]
Cc1ccc(NC(=O)c2cc(N3C(=O)C=CC3=O)ccc2N2CCOCC2)cc1 | -64 | 1.84 µM [falling, full curve] | 3.66 µM [falling, full curve, poor fit]
O=C(NC1CC1)C1CCCN(C(=O)Nc2ccc(F)cc2)C1 (stereo unspecified) | -12 | 0.58 µM [rising, partial curve, poor fit] | –
O=S(=O)(NCCC1=CCCCC1)c1cccc(S(=O)(=O)N2CCOCC2)c1 | – | – | 29.1 µM [falling, single point]
COc1ccc(N(C(=O)c2snc(C(N)=O)c2N)C(C(=O)NC2CCCC2)c2ccc(OC)c(OC)c2)cc1 (stereo unspecified) | 22.4 | – | –
O=c1[nH][nH]cc1C=Nc1ccc(Cl)cc1Cl | -43.6 | 29.1 µM [falling, single point] | 29.1 µM [falling, single point]
O=C(Cn1c(=O)n(-c2cccc(Cl)c2)c(=O)n1CC(=O)N1CCCCC1)N1CCCCC1 | -187 | 23.1 µM [falling, partial curve] | –
COC(=O)c1nn(-c2ccc3c(c2)OCO3)cc1O | -8.39 | – | –
COc1cccc(NC(=O)CN2C(=O)NC3(CCCc4ccccc43)C2=O)c1 (stereo unspecified) | -4.01 | – | 6.51 µM [rising, single point]
Cc1ccc2nc(NC(=S)NC(=O)c3cccs3)sc2c1 | -14.2 | – | –
CCOC(=O)c1cc(-c2ccc(C)o2)nn1CCC#N | 16.6 | – | 18.4 µM [rising, single point]
CCOP(=O)(OCC)c1nc(-c2cccc3ccccc23)oc1NCc1ccc(OC)cc1 | -37.6 | – | 0.00461 µM [falling, full curve, poor fit]
O=S(=O)(NN=C1CCCCCC1)c1ccccc1 | 14.7 | – | 0.0116 µM [falling, full curve, poor fit]
CCOc1cc(NC(=S)NCCCN2CCOCC2)c(OCC)cc1NC(=O)c1cccc(F)c1 | 22.9 | – | 23.1 µM [rising, single point]
Cc1ccc(C(=O)Nc2cccc(N(C)S(C)(=O)=O)c2)cc1S(=O)(=O)Nc1ccccc1 | 111 | – | –
COc1ccc(CN(CC(=O)NC(C)C)C(=O)CCC(=O)Nc2nccs2)cc1 | -5.13 | – | –
Cc1ccccc1NC(=S)c1ccc2ccccc2n1 | -9.85 | – | –

3 structures already listed, sorted by length of the SMILES, low to high.
SMILES | cell number change [%] | AC50 [1] | AC50 [2]
O=c1[nH][nH]cc1C=Nc1ccc(Cl)cc1Cl | -43.6 | 29.1 µM [falling, single point] | 29.1 µM [falling, single point]
COc1cccc(NC(=O)CN2C(=O)NC3(CCCc4ccccc43)C2=O)c1 (stereo unspecified) | -4.01 | – | 6.51 µM [rising, single point]
Cc1cc(NC(=O)COC(=O)c2cc(S(=O)(=O)N3CCOCC3)ccc2N2CCCCC2)no1 | 4.96 | – | 8.2 µM [rising, partial curve]

Continuation.

SMILES | cell number change [%] | AC50 [1] | AC50 [2]
CCOC(=O)c1c(C)[nH]c(C)c1C(=O)COC(=O)/C=C/c1ccc(Cl)cc1 | 11.6 | – | 0.92 µM [rising, full curve, poor fit]
C=CCOc1nc(N(C)C)nc(N(C)C)n1 | 33.1 | 29.1 µM [rising, single point] | 5.17 µM [rising, single point]
CCC(C)N1CC(C(=O)O)CC1=O (stereo unspecified) | -34.6 | 16.4 µM [falling, single point] | 29.1 µM [falling, single point]
Cc1cc(-n2c(C)cc(C(=O)CSc3nc(N)cc(=O)[nH]3)c2C)no1 | -68.4 | 20.6 µM [falling, single point] | 20.6 µM [falling, partial curve]
O=C(COC(=O)COc1ccccc1)NC12CC3CC(CC(C3)C1)C2 | -32.9 | 0.103 µM [falling, full curve, poor fit] | –
NNC(=O)C(=O)NCCCN1CCOCC1 | -50.2 | 25.9 µM [falling, single point] | 0.116 µM [falling, full curve, poor fit]
CCOC(=O)c1c(C)[nH]c(C(=O)OCC(=O)Nc2ccc(OC)c(Cl)c2)c1C | 28.7 | – | 3.66 µM [rising, partial curve]
C=CCn1c(N)cc(=O)nc1SC(CC)C(=O)Nc1ccc(C(C)=O)cc1 (stereo unspecified) | 32.1 | 29.1 µM [rising, single point] | –
CN(C)C(=O)N1CCC(C(=O)NCc2ccccc2Cl)CC1 | – | 6.51 µM [falling, single point] | –
c1ccc(CNCc2ccco2)cc1 | -3.87 | – | 29.1 µM [rising, single point]
N#Cc1cnn(-c2nc(SCc3ccccc3)nc3sc4c(c23)CCCC4)c1N | -25.6 | – | –
COc1ccccc1N1C(=O)c2ccccc2NC1c1cc(OC)c(OC)c(OC)c1 (stereo unspecified) | 6.35 | – | –
Nc1ccc(Sc2nnnn2-c2ccccc2)c(Cl)c1 | -4.92 | – | 3.66 µM [rising, full curve]
O=C(CCn1cnc2ccccc21)N/N=C/C=C/c1ccccc1 | 11.5 | – | 2.06 µM [rising, partial curve, poor fit]
Cc1ccc(C(=O)NCC(=O)OCC(=O)NC(C)C2CC3CCC2C3)cc1 (stereo unspecified) | 119 | – | 2.91 µM [rising, single point]
COC(=O)c1ccc(NC(=O)CN(c2ccc(C)cc2)S(=O)(=O)c2c(C)nn(C)c2C)cc1 | 2.26 | – | 0.58 µM [rising, single point]
CCOc1ccc(CN2CCNC(=O)C2CC(=O)NCc2csc(C(C)C)n2)cc1 (stereo unspecified) | -13 | – | 29.1 µM [falling, single point]
O=C(c1ccccc1S(=O)(=O)NCC(O)COc1ccc([N+](=O)[O-])cc1)N1CCCCC1 (stereo unspecified) | -32 | 32.6 µM [falling, single point] | –
N=C1/C(=C\c2ccc(Br)o2)C(=O)N=C2SC(CC(=O)N3CCCCC3)=NN12 | -3.63 | – | 0.13 µM [falling, partial curve, poor fit]
CCc1nnc(NS(=O)(=O)c2ccc(NC(=O)c3ccc(Br)cc3)cc2)s1 | 9.68 | – | 29.1 µM [rising, single point]
CC(C)[C@H](Nc1ncnc2c1oc1ccccc12)C(=O)O | -2.67 | – | –

SMILES | cell number change [%] | AC50 [1] | AC50 [2]
O=C(CN1CCOCC1)NCc1ccc(F)cc1 | 16.1 | – | 11.6 µM [rising, partial curve, poor fit]
Cc1cc(C)n(-c2ccc(NC(=O)C3CCCCN3C(=O)c3cccs3)cc2)n1 (stereo unspecified) | 0.647 | – | 0.0366 µM [falling, full curve, poor fit]
N#CC1=C(SCC(=O)NC23CC4CC(CC(C4)C2)C3)NC(=O)C(C#N)C12CCCCC2 (stereo unspecified) | -15.5 | – | 20.6 µM [falling, single point]
CCC(=O)N1CCN(c2ccc(Cl)cc2NC(=O)c2ccc3c(c2)OCCO3)CC1 | -17 | – | –
COc1ccc(C)cc1NC(=O)CCNC(=O)Cn1ccc2ccccc2c1=O | 21.4 | 0.0259 µM [rising, full curve, poor fit] | –
CC(C)c1ccc(Nc2nc(Cl)nc(Cl)n2)cc1 | -7.62 | – | 0.00461 µM [rising, full curve, poor fit]
COc1ccc(C2NC(=S)N3C(c4ccc(OC)cc4)NC(=S)N23)cc1 (stereo unspecified) | 5.89 | – | –
O=c1c(Cl)c(N2CCN(c3ccc(F)cc3)CC2)cnn1C12CC3CC(CC(C3)C1)C2 | -22.8 | – | 14.6 µM [falling, single point]
COc1cc(COCC(O)CN2C(C)CCCC2C)cc(OC)c1OC (stereo unspecified) | 37.2 | 32.6 µM [rising, partial curve, poor fit] | 29.1 µM [rising, single point]
COc1ccc(NC(=O)COC(C)=O)cc1OC | 14 | – | –
Cc1ccn2c(Nc3ccccc3)c(-c3ccccn3)nc2c1 | -31 | 10.3 µM [falling, partial curve] | –
COc1ccc(/C=N/Nc2ccc(C(=O)O)cc2)cc1OC | 12.8 | 0.00517 µM [rising, full curve, poor fit] | 0.0058 µM [rising, full curve, poor fit]
O=C(Nc1cc(C(F)(F)F)ccc1N1CCOCC1)c1ccc(F)cc1 | 5.22 | – | 7.31 µM [rising, partial curve]
CC(=O)c1cnc2scnn2c1=O | -37.9 | – | –
COc1cc2[nH]c(C(=O)N3CCN(c4ccc(F)cc4)CC3)cc2c(OC)c1OC | -49.5 | 29.1 µM [falling, single point] | 29.1 µM [falling, single point]
Cc1ccc(C(=O)N/N=C/c2ccc(-c3ccccc3[N+](=O)[O-])o2)cn1 | -16.1 | – | –
CCOC(=O)C1CCCCN1Cc1ccc(OC)c(OC)c1 (stereo unspecified) | -53.1 | 29.1 µM [falling, single point] | 29.1 µM [falling, single point]
Cc1ccc(S(=O)(=O)CC(=O)Nc2c(C)n(C)n(-c3ccccc3)c2=O)cc1 | – | – | 0.411 µM [rising, single point]
CS(=O)(=O)N1CCC(C(=O)Nc2cccc(F)c2)CC1 | 13.8 | – | 1.3 µM [rising, full curve]
